Publication PMC10711657
Results are given in words; binding and its absence hold for the method and conditions named. In cells and extracts the contact can be indirect. Some entries that bind do so weakly or less than the wild type.

Amino acid sequences for entries named in this document (tags omitted).
UniProt Q08509: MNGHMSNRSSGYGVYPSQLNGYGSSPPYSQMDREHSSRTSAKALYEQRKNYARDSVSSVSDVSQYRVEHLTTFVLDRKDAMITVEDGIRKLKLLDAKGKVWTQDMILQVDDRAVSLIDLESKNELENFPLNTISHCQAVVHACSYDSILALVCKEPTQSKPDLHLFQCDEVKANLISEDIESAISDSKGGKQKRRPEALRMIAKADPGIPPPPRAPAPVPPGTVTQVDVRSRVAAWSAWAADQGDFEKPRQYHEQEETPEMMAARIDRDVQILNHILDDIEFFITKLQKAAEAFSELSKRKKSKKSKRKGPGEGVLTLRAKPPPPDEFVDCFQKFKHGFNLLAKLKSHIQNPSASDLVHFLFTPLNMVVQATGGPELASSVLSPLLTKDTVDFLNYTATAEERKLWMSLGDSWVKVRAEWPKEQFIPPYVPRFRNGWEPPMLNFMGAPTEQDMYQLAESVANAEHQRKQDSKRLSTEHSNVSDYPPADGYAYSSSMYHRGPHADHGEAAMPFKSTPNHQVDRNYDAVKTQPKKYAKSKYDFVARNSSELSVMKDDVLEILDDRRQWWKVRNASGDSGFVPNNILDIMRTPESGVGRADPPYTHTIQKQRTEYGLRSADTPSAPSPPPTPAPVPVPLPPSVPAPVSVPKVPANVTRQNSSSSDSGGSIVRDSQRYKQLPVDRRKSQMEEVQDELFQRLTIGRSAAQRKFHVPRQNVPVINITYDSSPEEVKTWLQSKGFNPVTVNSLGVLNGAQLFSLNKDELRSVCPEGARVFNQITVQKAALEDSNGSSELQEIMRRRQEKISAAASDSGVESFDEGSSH
UniProt Q8BKX1: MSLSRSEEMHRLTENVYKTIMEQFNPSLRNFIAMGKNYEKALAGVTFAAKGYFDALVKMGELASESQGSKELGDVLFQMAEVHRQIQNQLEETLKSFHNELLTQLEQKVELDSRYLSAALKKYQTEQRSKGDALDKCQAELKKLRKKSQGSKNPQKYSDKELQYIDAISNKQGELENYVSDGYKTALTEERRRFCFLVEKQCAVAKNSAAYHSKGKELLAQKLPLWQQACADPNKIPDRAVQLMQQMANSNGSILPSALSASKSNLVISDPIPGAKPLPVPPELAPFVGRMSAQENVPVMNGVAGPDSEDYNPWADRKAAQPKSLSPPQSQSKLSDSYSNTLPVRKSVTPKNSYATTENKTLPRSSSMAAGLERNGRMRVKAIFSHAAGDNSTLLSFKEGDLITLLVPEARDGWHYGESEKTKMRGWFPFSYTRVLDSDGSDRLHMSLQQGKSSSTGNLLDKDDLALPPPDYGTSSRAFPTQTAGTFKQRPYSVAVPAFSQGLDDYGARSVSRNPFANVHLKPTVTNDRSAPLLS

B1: IRTKS (insulin receptor tyrosine kinase substrate) (protein, UniProt Q9DBJ3 1-514)
chain: MSRGPEEVNRLTENTYRNVMEQFNPGLRNLINLGKNYEKAVNAMILAGKAYYDGVAKIGEIATGSPVSTELGHVLIEISSTHKKLNETLDENFKKFHKDIIHELEKKTELDVKYMNATLKRYQAEHRNKLDSLEKSQAELKKIRRKSQGGRNALKYEHKEIEYVETVTSRQSEIQKFIADGCKEALLEEKRRFCFLVDKHCSFASHIHYYHMQSAELLNSKLPRWQETCCDATKVPEKIMNMIEEIKTPISTPVSGTPQPSPMIERSKMIGKDYDTLSKYSPKMPPAPSVKAYTSPLIDMFNNPATAAQSSEKTNNSTANTGEDPSLQRSVSVATGLNMMKKQKVKTIFPHTAGNNKTLLSFAQGDVLTLLIPEEKDGWLYGEHDTTKARGWFPSSYTKLLEENEAMSVPTPSPAPVRSISTVDLTEKSSVVIPPPDYLECLSMGATSDKKAGAPKVPSASTFRAPVSRPDATSTSPSDANGTAKPPFLSGENPFATVKLRPTVTNDRSAPIIR

Target: GFP‐Eps8‐wild type (WT) (mouse (primer names: mEps8)) (UniProt Q08509)
Assay: co-IP; GFP-trap (anti-GFP nanobody-coated agarose beads) of GFP-Eps8-WT bait from CAD cell lysate, 1 h at 4°C, washes in 10 mM Tris, 150 mM NaCl, 0.5% Triton, pH 7.5; cells treated with DMSO or 50 μM CK-666 for 1 h; Western blots for endogenous IRSp53 and IRTKS

Molecule	binding
IRSp53 (insulin receptor tyrosine kinase substrate protein of 53 kDa) (from UniProt Q8BKX1 1-535)	binds
B1	no binding
